Experimental data published in PubChem BioAssay AID720535 (National Center for Advancing Translational Sciences (NCATS), 2013).
Among all 1,600 compounds or so, about 420 (26%) were called active. Inconclusive means that the source gave no clear call. Such entries were picked first, then a sample of the others. The call rests on the fitted dose curve; in most records, active means well fitted inhibition curve with a large enough effect; inconclusive means small, poorly fitted or top-dose-only effect; inactive means flat fitted curve, though single readings scatter. Potencies beside an inconclusive call are fits to weak or partial responses and may not hold up.

assay: qHTS for Inhibitors of TGF-b: Cytotox Counterscreen for Cherry Picks; conditions: HepG2 CAGA-GFP viability, ATP luminescence, 18 h, cells stimulated with TGF-beta, 500 pg/mL; activity, negative = cytotoxicity: at 46.1 µM (top of the series); further: nearly all actives have a fitted effect of over 70% in size
Outline: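 Toxicity towards HepG2 CAGA-GFP cells is assessed with CellTiter-Glo luminescence following an 18 h, 37 °C treatment with compound in the presence of 500 pg/mL TGF-beta.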
Potency means the concentration at half of the fitted maximal effect.

Structure (SMILES)	Potency	activity, negative = cytotoxicity
O=C1CCCN1CCCNc1nc(NCc2cccs2)nc2ccsc12	inconclusive: 14.6 µM [inhibitor, partial curve]	–
COc1ccccc1NS(=O)(=O)c1ccc(-c2cnc(C3CC3)o2)cc1	inconclusive: 29.1 µM [inhibitor, single point]	–
COc1cc(OC)cc(C(=O)N[C@H](C(=O)Nc2nc(-c3ccc(OC)c(OC)c3)cs2)C(C)C)c1	–	inactive: -7.2%
Cc1ccc(N2CCN(C(=O)c3cc(C(=O)c4ccccc4C)c[nH]3)CC2)c(C)c1	–	inactive: -25.5%
CCCOc1ccc(F)cc1-c1cc(C(=O)Nc2ccc(F)c(Cl)c2)[nH]n1	inconclusive: 18.4 µM [inhibitor, single point]	–
O=C(NCCN1CCOCC1)c1ccc(Cl)c(S(=O)(=O)N2CCCCCC2)c1	–	inactive: -9.45%
COc1ccccc1N1CCN(Cc2cc(Br)c(O)c3ncccc23)CC1	–	inactive: -28%
O=C(Nc1cccc(-n2cnnn2)c1)c1cc(Cl)ccc1Cl	inconclusive: 18.4 µM [inhibitor, single point]	–
CCOC(=O)C1CCN(C(c2cccnc2)c2c(NC(=O)c3ccco3)sc(C)c2C)CC1 (stereo not drawn)	inconclusive: 14.6 µM [inhibitor, partial curve]	–
CC(=O)c1cn(CC(=O)Nc2c(C)cccc2C)c2ccccc12	–	inactive: -10.1%
CCN(CC)C(=O)C1=C(C)N(Cc2ccc(C(C)(C)C)cc2)C(=O)C(CC(=O)NCc2cccc3ccccc23)C1 (stereo not drawn)	inconclusive: 29.1 µM [inhibitor, single point]	–
Cc1cc(N2CCOCC2)nc(NCc2ccccc2)n1	–	inactive: -23.7%
CC1=C(C(=O)Nc2cccc(F)c2)C(c2ccsc2)C2=C(CC(C)(C)CC2=O)N1 (stereo not drawn)	–	inactive: -9.91%
CC(=O)c1ccc(NC(=O)COC(=O)c2c3c(nc4ccccc24)/C(=C\c2cccs2)CCC3)cc1	inconclusive: 2.91 µM [inhibitor, full curve, poor fit]	–
COc1ccc(C2C(C#N)=C(N)N(Nc3ccccc3)C3=C2C(=O)CC(C)(C)C3)cc1C (stereo not drawn)	–	inactive: -24.8%
Cc1ccc(NC(=O)c2nc(S(=O)(=O)Cc3ccccc3C)ncc2Cl)cc1C	active: 10.3 µM	–
Cc1cc(Cl)n2c(nc3cc(F)c(F)cc32)c1C#N	active: 5.8 µM	–
CCN(C[C@H]1N[C@@](Cc2ccccc2)(C(=O)OC)[C@H]2C(=O)N(Cc3ccccc3)C(=O)[C@@H]12)C(=O)Nc1ccc(C)cc1	–	inactive: -13.8%
OC[C@@H]1CN(Cc2ccc(-c3ccccc3)cc2)C[C@H](n2cnc3c(Nc4ccccc4)ncnc32)O1	inconclusive: 18.4 µM [inhibitor, single point]	–
Cc1ccc(SCC(=O)Nc2cc([N+](=O)[O-])ccc2O)cc1	inconclusive: 23.1 µM [inhibitor, single point]	–
CC1=Nc2ccccc2/C1=C\c1sc(Nc2ccc(C)cc2)nc1O	inconclusive: 18.4 µM [inhibitor, single point]	–
O=[N+]([O-])c1cc(Cl)ccc1N1CCN(c2ccccc2O)CC1	–	inactive: -6.28%

Entries of single compounds as entered above. Order of values: Potency | activity, negative = cytotoxicity
CCOC(=O)C1CCN(C(c2cccnc2)c2c(NC(=O)c3ccco3)sc(C)c2C)CC1 (stereo not drawn) is listed as inconclusive: 14.6 µM [inhibitor, partial curve] | –
COc1ccc(C2C(C#N)=C(N)N(Nc3ccccc3)C3=C2C(=O)CC(C)(C)C3)cc1C (stereo not drawn) is listed as – | inactive: -24.8%
CCCOc1ccc(F)cc1-c1cc(C(=O)Nc2ccc(F)c(Cl)c2)[nH]n1 is listed as inconclusive: 18.4 µM [inhibitor, single point] | –
CC1=C(C(=O)Nc2cccc(F)c2)C(c2ccsc2)C2=C(CC(C)(C)CC2=O)N1 (stereo not drawn) is listed as – | inactive: -9.91%

Next part

Structure (SMILES)	Potency	activity, negative = cytotoxicity
COc1ccc(-c2[nH]ncc2-c2ccc(Cl)cc2)c(O)c1	–	inactive: -19.6%
Fc1cc(F)c2nc(Nc3nc4c(F)cccc4s3)sc2c1	–	inactive: -21.5%
O=C(C[C@H]1C/C=C\CC[C@H](Cc2ccc(F)cc2)C(=O)O[C@@H](c2ccccc2)CNC1=O)N[C@@H](CO)Cc1ccccc1	inconclusive: 29.1 µM [inhibitor, single point]	–
O=C1C(Nc2ccccc2)=C/C(=N/S(=O)(=O)c2cccs2)c2ccccc21	active: 2.59 µM	–
COc1ccc(Cl)cc1NC(=O)CSc1nnc(Cc2ccc(C)cc2)c(=O)[nH]1	inconclusive: 20.6 µM [inhibitor, single point]	–
COc1cc(C2c3cc4c(cc3OC(NCCc3ccccc3)C2C)OCO4)cc(OC)c1OC (stereo not drawn)	–	inactive: -1.53%
COc1ccc(Nc2nnc(-c3ccc(C)cc3)c3ccccc23)cc1C(=O)N1CCCCC1	inconclusive: 18.4 µM [inhibitor, single point]	–
Cc1ccc(-c2nc3ccc(Br)cn3c2Cc2cccc(F)c2)cc1	–	inactive: -15.8%
CCN(c1ccccc1)S(=O)(=O)c1ccc(NC(=O)c2nc(S(C)(=O)=O)ncc2Cl)cc1	active: 5.17 µM	–
O=C(Nc1ccc(N2CCCCC2)c(S(=O)(=O)Nc2ccccc2Cl)c1)c1cccnc1	inconclusive: 29.1 µM [inhibitor, single point]	–
CN(CCOc1ccccc1)C(=O)C1CCN(C(=O)c2ccc(F)cc2)CC1	–	inactive: 9.62%
CC(C)C[C@H]1CNC(=S)N1C[C@H]1CCCN1C[C@H](Cc1ccc(O)cc1)N1C[C@H](Cc2ccccc2)N(CC2CCCCCC2)C1=S	–	inactive: -4.16%
NC(c1csc(NC(=O)Nc2cccc(Cl)c2)n1)c1ccccc1Cl (stereo not drawn)	inconclusive: 23.1 µM [inhibitor, single point]	–
CC[C@@H]1C(c2ccccc2)=NN(c2ccccc2)[C@H]1C(=O)N1CCOC1=O	–	inactive: 0.12%
COc1ccccc1/C=C/C(=O)N1CCc2cc(OC)c(OC)cc2C1C (stereo not drawn)	inconclusive: 9.2 µM [inhibitor, partial curve]	–
Cc1ccc(OCCCC(=O)Nc2ccc(Cl)c(S(=O)(=O)N3CCOCC3)c2)cc1	inconclusive: 23.1 µM [inhibitor, single point]	–
CCOc1ccc(CCN2C(=S)N([C@@H](CC(C)C)CN3CCC[C@@H]3CN3C(=S)NC[C@@H]3Cc3ccccc3)C[C@@H]2Cc2ccc(O)cc2)cc1	inconclusive: 20.6 µM [inhibitor, single point]	–
Cc1cccc(COCC(Cc2ccccc2)N2CCN(C(=O)c3cc(Cl)cc(Cl)c3)CCC2=O)c1 (stereo not drawn)	inconclusive: 29.1 µM [inhibitor, single point]	–
O=Cc1cn(CC(=O)Nc2ccc3c(c2)OCO3)c2ccccc12	active: 3.26 µM	–
O=S(Cc1ccc(Br)cc1)Cc1nnc(SCc2c(F)cccc2Cl)n1-c1ccccc1 (stereo not drawn)	inconclusive: 20.6 µM [inhibitor, single point]	–
Cc1ccccc1CS(=O)(=O)c1nnc([C@H](CC(C)C)NC(=O)OC(C)(C)C)o1	inconclusive: 29.1 µM [inhibitor, single point]	–
